Experimental data reported in publication PMC4628094, “In Vitro Assessment of Uptake and Lysosomal Sequestration of Respiratory Drugs in Alveolar Macrophage Cell Line NR8383” (Pharmaceutical Research, 2015).

Columns and labels:
[1] = Physicochemical properties, experimental literature values (Table I); details: classification in Table I
[2] = test system: Lung tissue slices from male Sprague-Dawley rats; details: desipramine, diazepam 5 µM, chloroquine, thiopental 10 µM, 60 min, ref (3), cited from earlier work

Row | Structure (SMILES) | Acid–base Property [1] | Reduction in total uptake (%) ([2]; NH4Cl 20 mM) | Reduction of total uptake (%) ([2]; monensin 10 µM)
1 | CC(C)[N+]1(C)[C@@H]2CC[C@H]1C[C@@H](OC(=O)C(CO)c1ccccc1)C2 (stereo partly drawn) [Ipratropium bromide] | Permanently cationic | – | –
2 | CN1C(=O)CN=C(c2ccccc2)c2cc(Cl)ccc21 [Diazepam] | – | 2.6 | 1.8
